Test results from PMC11285970.
No constants are given. Whether binding was seen depends on the method and setting. Binding seen in cells or lysates may run through a third protein. Here binding means that the protein was enriched with, or labelled near, the bait; the list need not be complete.

Protein sequences, listed by entry. Tags and fused reporters are not part of them. Lines headed by an entry give the natural chain unless they say otherwise; changes in a name come on top.
UniProt A4HV28: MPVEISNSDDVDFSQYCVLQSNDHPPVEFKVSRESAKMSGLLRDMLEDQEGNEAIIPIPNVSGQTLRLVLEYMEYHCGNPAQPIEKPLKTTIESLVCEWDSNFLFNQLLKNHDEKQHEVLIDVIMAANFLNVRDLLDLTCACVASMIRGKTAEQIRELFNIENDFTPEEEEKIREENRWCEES
UniProt A4ICF5: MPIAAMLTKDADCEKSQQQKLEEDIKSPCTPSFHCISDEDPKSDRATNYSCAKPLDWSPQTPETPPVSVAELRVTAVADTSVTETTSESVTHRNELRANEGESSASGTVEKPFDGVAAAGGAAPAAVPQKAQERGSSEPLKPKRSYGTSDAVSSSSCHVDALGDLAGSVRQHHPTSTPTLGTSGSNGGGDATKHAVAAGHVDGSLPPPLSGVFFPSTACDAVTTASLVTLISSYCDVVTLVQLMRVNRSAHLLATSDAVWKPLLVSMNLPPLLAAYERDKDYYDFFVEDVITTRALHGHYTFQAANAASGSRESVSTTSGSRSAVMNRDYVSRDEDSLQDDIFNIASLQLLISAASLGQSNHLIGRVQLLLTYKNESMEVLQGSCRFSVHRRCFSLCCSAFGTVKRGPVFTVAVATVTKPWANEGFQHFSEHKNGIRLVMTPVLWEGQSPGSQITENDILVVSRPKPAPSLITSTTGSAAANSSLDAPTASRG
UniProt A4IAM5: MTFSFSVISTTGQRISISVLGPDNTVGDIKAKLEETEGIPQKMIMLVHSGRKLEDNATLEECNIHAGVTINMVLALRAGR
UniProt A4I953: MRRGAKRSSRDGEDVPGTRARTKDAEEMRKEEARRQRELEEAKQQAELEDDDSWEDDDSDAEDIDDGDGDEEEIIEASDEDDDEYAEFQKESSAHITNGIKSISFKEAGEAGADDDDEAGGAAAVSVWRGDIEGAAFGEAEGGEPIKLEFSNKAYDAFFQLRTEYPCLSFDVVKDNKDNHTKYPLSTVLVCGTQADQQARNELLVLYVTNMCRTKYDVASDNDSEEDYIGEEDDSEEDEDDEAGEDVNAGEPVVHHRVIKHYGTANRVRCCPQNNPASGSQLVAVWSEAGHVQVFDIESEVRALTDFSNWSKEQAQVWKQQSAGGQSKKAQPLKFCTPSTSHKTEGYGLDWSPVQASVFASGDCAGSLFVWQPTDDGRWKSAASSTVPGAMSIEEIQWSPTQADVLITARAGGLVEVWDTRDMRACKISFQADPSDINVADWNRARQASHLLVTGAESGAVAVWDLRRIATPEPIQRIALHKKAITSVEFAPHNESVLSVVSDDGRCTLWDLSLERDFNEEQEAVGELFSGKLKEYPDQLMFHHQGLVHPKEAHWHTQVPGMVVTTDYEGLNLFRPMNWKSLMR
UniProt E9AHR9: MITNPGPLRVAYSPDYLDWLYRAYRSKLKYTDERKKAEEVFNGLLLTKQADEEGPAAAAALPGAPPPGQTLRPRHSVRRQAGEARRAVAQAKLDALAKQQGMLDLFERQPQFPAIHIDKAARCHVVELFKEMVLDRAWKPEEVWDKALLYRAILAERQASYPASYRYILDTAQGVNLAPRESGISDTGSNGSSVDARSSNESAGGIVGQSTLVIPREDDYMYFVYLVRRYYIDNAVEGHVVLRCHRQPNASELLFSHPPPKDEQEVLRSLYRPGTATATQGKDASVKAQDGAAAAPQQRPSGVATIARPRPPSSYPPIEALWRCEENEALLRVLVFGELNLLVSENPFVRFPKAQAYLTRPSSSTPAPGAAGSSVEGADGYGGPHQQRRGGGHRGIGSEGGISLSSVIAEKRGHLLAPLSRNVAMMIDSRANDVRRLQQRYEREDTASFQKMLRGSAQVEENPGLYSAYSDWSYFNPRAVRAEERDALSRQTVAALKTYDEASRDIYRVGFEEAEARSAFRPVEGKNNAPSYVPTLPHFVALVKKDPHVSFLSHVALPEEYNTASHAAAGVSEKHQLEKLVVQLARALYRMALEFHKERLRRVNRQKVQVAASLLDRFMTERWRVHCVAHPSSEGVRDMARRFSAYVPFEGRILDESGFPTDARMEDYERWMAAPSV
UniProt A4I0T9: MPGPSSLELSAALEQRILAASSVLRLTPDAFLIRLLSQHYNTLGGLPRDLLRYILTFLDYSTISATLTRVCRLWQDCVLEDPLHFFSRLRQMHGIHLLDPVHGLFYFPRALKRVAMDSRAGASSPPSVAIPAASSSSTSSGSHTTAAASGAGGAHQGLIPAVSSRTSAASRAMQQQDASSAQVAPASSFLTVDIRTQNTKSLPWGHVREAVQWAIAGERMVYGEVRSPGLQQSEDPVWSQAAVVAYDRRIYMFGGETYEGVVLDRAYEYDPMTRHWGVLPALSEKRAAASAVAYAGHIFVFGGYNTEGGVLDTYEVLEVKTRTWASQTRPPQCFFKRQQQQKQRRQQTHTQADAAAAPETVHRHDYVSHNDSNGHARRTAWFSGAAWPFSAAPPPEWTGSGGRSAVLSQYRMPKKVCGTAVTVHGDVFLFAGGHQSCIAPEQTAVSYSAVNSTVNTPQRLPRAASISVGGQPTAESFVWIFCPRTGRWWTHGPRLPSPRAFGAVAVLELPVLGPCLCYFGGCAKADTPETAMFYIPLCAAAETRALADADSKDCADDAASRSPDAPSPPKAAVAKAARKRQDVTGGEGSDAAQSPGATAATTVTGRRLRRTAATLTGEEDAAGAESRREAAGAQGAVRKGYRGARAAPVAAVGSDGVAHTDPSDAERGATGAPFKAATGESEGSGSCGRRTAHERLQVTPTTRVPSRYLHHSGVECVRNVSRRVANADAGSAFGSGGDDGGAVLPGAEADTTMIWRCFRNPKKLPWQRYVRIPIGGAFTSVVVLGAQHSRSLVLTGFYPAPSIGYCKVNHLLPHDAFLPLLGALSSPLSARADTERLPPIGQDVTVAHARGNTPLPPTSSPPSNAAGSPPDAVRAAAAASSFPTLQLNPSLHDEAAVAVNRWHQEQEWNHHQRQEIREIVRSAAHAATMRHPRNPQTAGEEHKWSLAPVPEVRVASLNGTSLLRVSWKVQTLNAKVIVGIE
UniProt A4I9T3: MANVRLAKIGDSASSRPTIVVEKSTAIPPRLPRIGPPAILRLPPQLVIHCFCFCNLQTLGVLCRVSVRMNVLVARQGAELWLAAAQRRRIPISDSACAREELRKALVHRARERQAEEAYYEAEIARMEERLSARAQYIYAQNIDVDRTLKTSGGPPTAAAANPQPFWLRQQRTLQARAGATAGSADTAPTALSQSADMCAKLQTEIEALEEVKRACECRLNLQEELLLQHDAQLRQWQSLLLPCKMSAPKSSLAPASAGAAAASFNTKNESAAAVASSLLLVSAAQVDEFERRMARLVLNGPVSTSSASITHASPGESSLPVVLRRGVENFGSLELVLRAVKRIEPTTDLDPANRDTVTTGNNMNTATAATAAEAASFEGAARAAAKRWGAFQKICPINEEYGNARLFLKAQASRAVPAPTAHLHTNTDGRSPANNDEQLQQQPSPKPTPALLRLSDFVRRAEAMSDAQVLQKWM
UniProt A4I7N7: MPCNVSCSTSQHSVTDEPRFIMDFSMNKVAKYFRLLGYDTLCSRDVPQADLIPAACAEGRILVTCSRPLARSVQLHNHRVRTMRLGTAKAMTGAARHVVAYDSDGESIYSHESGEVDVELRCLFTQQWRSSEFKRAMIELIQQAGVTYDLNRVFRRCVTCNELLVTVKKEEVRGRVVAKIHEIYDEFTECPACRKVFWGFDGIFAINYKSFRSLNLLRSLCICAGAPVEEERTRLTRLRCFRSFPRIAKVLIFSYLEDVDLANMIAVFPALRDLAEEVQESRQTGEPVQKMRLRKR
UniProt A4I8H1: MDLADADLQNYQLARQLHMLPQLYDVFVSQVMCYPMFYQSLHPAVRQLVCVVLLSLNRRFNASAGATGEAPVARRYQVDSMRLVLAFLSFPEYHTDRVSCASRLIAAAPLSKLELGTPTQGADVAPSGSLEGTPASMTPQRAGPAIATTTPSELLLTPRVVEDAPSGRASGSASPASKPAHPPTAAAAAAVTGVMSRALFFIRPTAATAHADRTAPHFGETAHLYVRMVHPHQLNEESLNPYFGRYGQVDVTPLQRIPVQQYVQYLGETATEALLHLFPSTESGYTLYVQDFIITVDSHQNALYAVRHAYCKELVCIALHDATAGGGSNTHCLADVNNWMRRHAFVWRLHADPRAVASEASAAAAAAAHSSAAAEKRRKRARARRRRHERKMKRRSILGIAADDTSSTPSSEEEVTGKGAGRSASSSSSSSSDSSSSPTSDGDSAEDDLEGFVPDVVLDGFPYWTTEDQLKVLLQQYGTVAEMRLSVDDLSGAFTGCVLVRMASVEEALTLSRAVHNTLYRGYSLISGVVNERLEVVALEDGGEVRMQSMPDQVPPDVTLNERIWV
UniProt A4HWG7: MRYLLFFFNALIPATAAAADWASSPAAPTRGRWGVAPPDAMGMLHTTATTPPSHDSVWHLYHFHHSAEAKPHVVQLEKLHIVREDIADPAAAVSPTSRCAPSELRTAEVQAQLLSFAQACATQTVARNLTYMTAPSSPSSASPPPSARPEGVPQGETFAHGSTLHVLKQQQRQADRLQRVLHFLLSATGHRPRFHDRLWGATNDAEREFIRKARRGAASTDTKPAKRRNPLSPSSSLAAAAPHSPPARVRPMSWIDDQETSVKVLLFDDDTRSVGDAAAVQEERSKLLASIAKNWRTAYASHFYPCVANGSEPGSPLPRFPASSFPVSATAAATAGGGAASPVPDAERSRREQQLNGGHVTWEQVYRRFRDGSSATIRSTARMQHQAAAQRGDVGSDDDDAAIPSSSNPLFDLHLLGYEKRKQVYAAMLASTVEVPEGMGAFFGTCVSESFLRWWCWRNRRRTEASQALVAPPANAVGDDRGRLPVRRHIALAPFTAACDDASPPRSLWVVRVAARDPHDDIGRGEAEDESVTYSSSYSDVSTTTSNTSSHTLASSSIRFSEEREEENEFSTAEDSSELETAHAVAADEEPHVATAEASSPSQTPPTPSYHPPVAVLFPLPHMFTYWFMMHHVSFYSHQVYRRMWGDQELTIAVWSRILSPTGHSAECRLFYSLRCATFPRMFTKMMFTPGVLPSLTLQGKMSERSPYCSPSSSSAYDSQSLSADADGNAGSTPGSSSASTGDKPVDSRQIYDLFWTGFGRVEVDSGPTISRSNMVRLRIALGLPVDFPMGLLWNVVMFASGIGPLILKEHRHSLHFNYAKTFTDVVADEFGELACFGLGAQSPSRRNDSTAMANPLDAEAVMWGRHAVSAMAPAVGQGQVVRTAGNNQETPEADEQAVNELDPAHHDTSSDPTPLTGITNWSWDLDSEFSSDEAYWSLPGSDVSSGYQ
UniProt A4HTC4: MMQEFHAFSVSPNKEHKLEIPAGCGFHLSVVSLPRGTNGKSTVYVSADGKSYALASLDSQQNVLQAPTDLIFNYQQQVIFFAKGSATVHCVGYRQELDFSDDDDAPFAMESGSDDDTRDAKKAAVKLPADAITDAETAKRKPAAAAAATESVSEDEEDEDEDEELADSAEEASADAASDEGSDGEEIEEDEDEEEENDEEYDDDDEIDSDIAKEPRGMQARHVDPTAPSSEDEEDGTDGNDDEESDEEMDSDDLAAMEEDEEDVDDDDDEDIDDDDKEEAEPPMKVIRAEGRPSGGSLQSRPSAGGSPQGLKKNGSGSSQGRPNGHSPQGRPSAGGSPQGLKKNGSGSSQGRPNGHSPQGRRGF
UniProt A4I137: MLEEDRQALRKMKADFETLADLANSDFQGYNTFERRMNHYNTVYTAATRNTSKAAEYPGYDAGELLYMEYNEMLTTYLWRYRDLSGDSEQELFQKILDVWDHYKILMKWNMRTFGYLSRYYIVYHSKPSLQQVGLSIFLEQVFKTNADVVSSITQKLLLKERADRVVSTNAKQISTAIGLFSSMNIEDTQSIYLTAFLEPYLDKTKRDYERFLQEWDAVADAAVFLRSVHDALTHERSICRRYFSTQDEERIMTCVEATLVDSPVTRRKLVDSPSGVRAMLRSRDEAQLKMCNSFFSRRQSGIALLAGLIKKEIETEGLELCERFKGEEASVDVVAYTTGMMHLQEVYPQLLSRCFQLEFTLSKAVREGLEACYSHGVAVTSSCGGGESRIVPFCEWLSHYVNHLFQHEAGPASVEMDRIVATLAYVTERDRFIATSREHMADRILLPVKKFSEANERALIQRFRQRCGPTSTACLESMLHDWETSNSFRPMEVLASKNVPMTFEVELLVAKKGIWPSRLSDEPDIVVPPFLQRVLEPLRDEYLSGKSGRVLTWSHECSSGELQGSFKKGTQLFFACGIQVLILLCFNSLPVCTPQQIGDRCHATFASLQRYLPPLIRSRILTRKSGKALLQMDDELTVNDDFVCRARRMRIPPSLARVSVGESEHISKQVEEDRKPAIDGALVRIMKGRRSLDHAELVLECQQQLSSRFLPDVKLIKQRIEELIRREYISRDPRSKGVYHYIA

Target: 3xmyc-mCherry-LinfSkp1 (tagged at the gene's own locus in L. infantum) (L. infantum) (UniProt A4HV28)
Experiment: affinity purification with mass spectrometry; lysates of L. infantum lines with 3x myc-mCherry::SKP1 or 3x myc-mCherry::CUL1 (parental Cas9 T7 as negative control); NP-40 lysis buffer with 225 mM KCl; 20 mg protein on anti-myc beads 3 h at 4 °C; on-bead trypsin digestion; nLC-MS/MS; three …

Row | Substance | binding
1 | LinfFlp6, endogenous (LINF_360032300) (from UniProt A4ICF5) | binds
2 | ubiquitin-like protein LINF_340026400, endogenous (from UniProt A4IAM5) | binds
3 | LINF_330027700 (RNA binder), endogenous (from UniProt A4I953) | binds
4 | LINF_330034300 (RNA binder), endogenous (from UniProt E9AHR9) | binds
5 | LinfFlp1, endogenous (LINF_240015400) (from UniProt A4I0T9) | binds
6 | LinfFlp5, endogenous (LINF_340019100) (from UniProt A4I9T3) | binds
7 | LINF_320012500 (RNA binder), endogenous (from UniProt A4I7N7) | binds
8 | LINF_320042200 (RNA binder), endogenous (from UniProt A4I8H1) | binds
9 | LinfFlp2, endogenous (LINF_150014400) (from UniProt A4HWG7) | binds
10 | LINF_070016300 (RNA binder), endogenous (from UniProt A4HTC4) | binds

Target: 3xmyc-mCherry-LinfCul1 (tagged at the gene's own locus in L. infantum) (L. infantum) (UniProt A4I137)
Experiment: as above

Row | Substance | binding
11 | ubiquitin-like protein LINF_340026400, endogenous (from UniProt A4IAM5) | binds
